Laboratory results published in US10463671B2, “Combination therapy for treating cancer” (Epizyme, Inc., priority 2013, dated 2019).

Key:
SU-DHL10 cells = experiment: cells; settings: Homo sapiens, SU-DHL10, read-out: 7 Day Cpd44 IC50, 4 d Pred Pre/ 3 d Co-treat, SU-DHL10 (Y646-Sens); 4 d prednisolone then 3 d Cpd44 + prednisolone
SU-DHL-10 cells = experiment: Medium throughput combination proliferation assay (CellTiter-Glo, Chou-Talalay CI / potency shift); settings: read-out: Potency (Compound 44 IC50), calculated after 7 days
Toledo cells = experiment: as above; settings: read-out: Potency (Compound 44 IC50), calculated after 11 days of treatment
OCI-LY19 cells = experiment: as above; settings: Homo sapiens, read-out: Potency (Compound 44 IC50)
DOHH2 cells = experiment: as above; settings: read-out: Potency (Compound 44 IC50); DOHH-2; calculated after 7 days
SU-DHL-5 cells = experiment: as above; settings: Homo sapiens, read-out: Potency (Compound 44 IC50)
WSU-DLCL2 cells = experiment: as above; settings: Homo sapiens, WSUDLCL2, […], read-out: Potency (Compound 44 IC50)

With `CCN(c1cc(-c2ccc(CN3CCOCC3)cc2)cc(C(=O)NCc2c(C)cc(C)[nH]c2=O)c1C)C1CCOCC1` [Compound 44] the IC50 (SU-DHL10 cells) was 520 nM, the IC50 (SU-DHL-10 cells) was 73 nM and the IC50 (Toledo cells) was > 10000 nM. For the same compound, the IC50 (OCI-LY19 cells) was > 10000 nM, the IC50 (DOHH2 cells) was > 10000 nM and the IC50 (SU-DHL-5 cells) was 3300 nM. The IC50 (WSU-DLCL2 cells) was 310 nM.
